Measurements from PubChem BioAssay AID2685 (National Center for Advancing Translational Sciences (NCATS), 2010).
Screen size: about 320,000 compounds; about 2,100 (0.66%) were called active. The shares of active, inactive and inconclusive entries below differ from those in the screen. Calls come from the whole dose curve; as a rule, active = well fitted inhibition curve with a large enough effect in the signal ratio, with a control signal flat (not every such curve was filed as active); inconclusive = small, poorly fitted or top-dose-only effect, or effect the other way, or a change in a side signal; inactive = flat fitted curve, though single readings scatter; the % refers to the signal ratio. A potency beside an inconclusive call is a rough fit, not a confirmed value.

test: qHTS Assay for Lipid Storage Modulators in Drosophila S3 Cells; conditions: BODIPY lipid droplet fluorescence, 18-24 h, cells fed with added oleic acid; lipid storage change, negative = inhibition: at 46.1 µM (top of the series) unless noted
How it was run: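 Laser-scanning cytometry quantifies lipid droplet accumulation (500–530 nm total intensity; droplet/cell object ratio) in oleic acid-fed (400 uM added) Drosophila S3 cells treated with a concentration series. 20 uM Triacsin C defined 100% inhibition.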
% is set by controls: 0 for no effect and ±100 for the full control effect; potency is the fitted concentration of half-maximal effect.

Question: With CCCCN(CC)C(=O)Cn1ncc2c3ccccc3n(CCC)c2c1=O as the compound, how does the lipid storage change, negative = inhibition read?
Answer: inconclusive: 4.34%

Question: For Cc1[nH]n(-c2ccc(Cl)cc2)c(=O)c1/C=N/c1nnc(-c2ccccc2)s1, which lipid storage change, negative = inhibition is on record?
Answer: inconclusive: -19.2%

Question: For Cc1ccc(NCC(=O)N/N=C\c2cccc(O)c2)cc1, which lipid storage change, negative = inhibition is on record?
Answer: inconclusive: 11.7%

Question: Which lipid storage change, negative = inhibition does the source give for Cc1nn(Cc2ccccc2)c(Cl)c1/C=C/C(=O)OC(C(=O)NC(N)=O)C(C)C (stereo not given) here?
Answer: inconclusive: 53.7%

Question: With COC(=O)N1C(=O)[C@](c2ccccc2)(C2CCCC2)N1C(=O)OC as the compound, how does the Potency read?
Answer: inconclusive: 6.51 µM [activator, single point]

Question: With COc1cc(/C=C2\SC(N)=NC2=O)cc(OC)c1 as the compound, how does the lipid storage change, negative = inhibition read?
Answer: inconclusive: -58.1%

Question: Which “lipid storage change, negative = inhibition” value does the source give for O=C(COC(=O)c1ccc(Br)o1)NCCc1ccccc1 here?
Answer: inactive: -3.74%

Question: For Cc1ccc(N(CC(=O)Nc2ccccc2-c2ccccc2)S(=O)(=O)c2ccccc2)cc1, which lipid storage change, negative = inhibition is on record?
Answer: inconclusive: 1.66%

Question: For CC1Cn2c(nc3sc4c(c3c2=O)CCC4)N1CCO (stereo not given), which Potency is on record?
Answer: inconclusive: 0.58 µM [activator, full curve]

Question: Which lipid storage change, negative = inhibition does the source give for CCCCCCn1c(O)c(/C=C2\C=NN=C2c2ccccc2)sc1=S here?
Answer: inconclusive: -86.3%

Question: Which Potency does the source give for O=C(Nc1ccc(S(=O)(=O)Nc2nccs2)cc1)c1cc(-c2ccccc2Cl)nc2ccccc12 here?
Answer: inconclusive: 29.1 µM [rising, single point]

Question: For COC(=O)c1c(NC(=O)c2cccc([N+](=O)[O-])c2)sc(C(N)=O)c1C, which lipid storage change, negative = inhibition is on record?
Answer: inconclusive: -62.5% [cytotoxic] [at 0.369 µM]

Question: Which lipid storage change, negative = inhibition does the source give for OCc1nc2ccccc2n1/N=C/c1cccs1 here?
Answer: inconclusive: 15.8%

Question: Which “lipid storage change, negative = inhibition” value does the source give for COc1ccc2nc(SCc3ccccc3C)nc(C)c2c1 here?
Answer: inactive: -4.04%

Question: Which lipid storage change, negative = inhibition does the source give for COC(=O)c1cc(-c2c[nH]c3ccccc23)n[nH]1 here?
Answer: inconclusive: -7.86%

Question: With CC(=O)Nc1nnc(SCC(=O)NC2CCCC2)s1 as the compound, how does the lipid storage change, negative = inhibition read?
Answer: inconclusive: 46.2%

Question: For CC(=O)Nc1ccc(S(=O)(=O)NNC(=O)C(=O)NNc2ccccn2)cc1, which “lipid storage change, negative = inhibition” value is on record?
Answer: inactive: -15.1%

Question: Which lipid storage change, negative = inhibition does the source give for Cc1ccc(C)c(N(CC(=O)NCc2ccco2)C(=O)CNS(=O)(=O)c2ccc(F)cc2)c1 here?
Answer: inconclusive: -10.9%

Question: With CC(C)Oc1ccc(C(=O)NCC(=O)N2CCN(S(=O)(=O)/C=C/c3ccccc3)CC2)cc1 as the compound, how does the lipid storage change, negative = inhibition read?
Answer: inconclusive: 5.52%

Question: For CC1Cc2cc(/C(O)=C3/C(=O)C(=O)N(Cc4cccnc4)C3c3cccc(O)c3)ccc2O1 (stereo not given), which lipid storage change, negative = inhibition is on record?
Answer: inconclusive: -1.53%

Question: Which Potency does the source give for CCc1ccc([C@@H]2CC=C(C(=O)O)[C@H](c3ccc(F)cc3)N2S(=O)(=O)c2ccc(C)cc2)cc1 here?
Answer: inconclusive: 8.2 µM [activator, partial curve]

Question: With O=C(O)COc1ccc(/C=C/c2ccc3cccc([N+](=O)[O-])c3n2)cc1 as the compound, how does the lipid storage change, negative = inhibition read?
Answer: inconclusive: 25.6%

Question: With CN(C)CCNC(=O)Nc1ccc(Cl)c(Cl)c1 as the compound, how does the lipid storage change, negative = inhibition read?
Answer: inconclusive: -110%

Question: Which Potency does the source give for CCOc1ccccc1N1CCN(C(=O)CNC(=O)c2ccccc2F)CC1 here?
Answer: inconclusive: 0.0065 µM [activator, full curve, poor fit]

Question: With CCOc1cccc(-c2nnc(SCC(=O)Nc3cc(OC)cc(OC)c3)n2N)c1 as the compound, how does the Potency read?
Answer: inconclusive: 0.82 µM [cytotoxic, full curve, poor fit]

Question: With O=C(Nc1ccc(F)c(Cl)c1)C1CCCN(C2=NS(=O)(=O)c3ccccc32)C1 (stereo not given) as the compound, how does the lipid storage change, negative = inhibition read?
Answer: inconclusive: 9.58%

Question: Which “outcome” value does the source give for CCC(=O)Nc1ccc(NC(=O)c2ccccc2Cl)nc1 here?
Answer: inactive [at 46.1 µM]

Question: For Cc1ccc(-c2noc(CCC(=O)NCCN3CCc4ccccc4C3)n2)cc1, which Potency is on record?
Answer: inconclusive: 4.61 µM [falling, single point]

Question: Which lipid storage change, negative = inhibition does the source give for CCOc1ccc(CCNC(=O)COC(=O)C2CCN(S(=O)(=O)c3ccc(C)c(C)c3)CC2)cc1OCC here?
Answer: inconclusive: -2.92%

Question: With COc1ccc(-c2c3c(=O)n(C)c(=O)n(C)c3cn2-c2cc(OC)ccc2OC)cc1 as the compound, how does the Potency read?
Answer: inconclusive: 2.31 µM [activator, partial curve]

Question: With Cc1nn(-c2ccc(F)cc2)c2nc(N)c(C#N)c(-c3ccc(O)c(O)c3)c12 as the compound, how does the Potency read?
Answer: inconclusive: 32.6 µM [falling, single point]

Question: For O=S(=O)(c1ccc(C(F)(F)F)cc1)N1CCN(CCc2ccccc2)CC1, which lipid storage change, negative = inhibition is on record?
Answer: inconclusive: -2%

Question: Which Potency does the source give for O=C(O)CC/C(=C\c1cc([N+](=O)[O-])ccc1Cl)c1nc2ccccc2s1 here?
Answer: inconclusive: 6.51 µM [activator, full curve]

Question: For O=C(Nc1nc2ccccc2[nH]1)c1ccc(OC(F)F)cc1, which “outcome” value is on record?
Answer: inactive [at 46.1 µM]

Question: Which lipid storage change, negative = inhibition does the source give for CCN(CC(=O)Nc1ccc(NC(C)=O)cc1)C(=O)c1ccccc1SCc1c(C)noc1C here?
Answer: inconclusive

Question: Which lipid storage change, negative = inhibition does the source give for O=C(CN1C(=O)c2ccccc2C1=O)N1CCCCC1 here?
Answer: inconclusive: -14.5%

Question: With CCCn1c(NC(=O)c2cccc(C)c2C)nc2ccccc21 as the compound, how does the lipid storage change, negative = inhibition read?
Answer: inconclusive: -21.8%

Question: With CCC(C(=O)OCC(=O)NC(=O)NC(C)(C)C)c1ccccc1 (stereo not given) as the compound, how does the lipid storage change, negative = inhibition read?
Answer: inconclusive: 62.1%

Question: With N#Cc1ccc(CN2CCN(C(=O)CCNS(=O)(=O)c3ccc(F)c(Cl)c3)CC2)cc1 as the compound, how does the Potency read?
Answer: active: 20.6 µM

Question: For N#CC1=C(SCC(=O)NC2CC2)NC(=O)C(C#N)C12CCCCC2 (stereo not given), which lipid storage change, negative = inhibition is on record?
Answer: inconclusive: 47.8%

Question: With CC1(C)Cc2c(sc3c2c(=N)n(Cc2ccco2)c(=O)n3Cc2ccc(F)cc2)CO1 as the compound, how does the lipid storage change, negative = inhibition read?
Answer: inconclusive: 6.4%

Question: With CCN1CCN(CCC(=O)Nc2ccc(F)c(F)c2)CC1 as the compound, how does the lipid storage change, negative = inhibition read?
Answer: inconclusive: -4.07%

Question: Which Potency does the source give for COCCNC(=O)Cn1cc(C(=S)N2CCCCC2)c2ccccc21 here?
Answer: inconclusive: 0.461 µM [falling, full curve, poor fit]

Question: For COc1ccc([C@H]2[C@H](C(=O)C(C)(C)C)N3N=Cc4ccccc4C3[C@]23N=C(c2ccccc2)OC3=O)cc1OC (stereo not given in full), which Potency is on record?
Answer: inconclusive: 23.1 µM [activator, partial curve]

Question: Which lipid storage change, negative = inhibition does the source give for NS(=O)(=O)c1ccc(NC(=S)NC(=O)c2ccc(-c3ccccc3)cc2)cc1 here?
Answer: inconclusive: -23.3%

Question: With COc1cccc(NC(=O)CN(C)C(=O)c2sc3cc(Cl)ccc3c2Cl)c1 as the compound, how does the lipid storage change, negative = inhibition read?
Answer: inconclusive: -43.6%

Question: Which lipid storage change, negative = inhibition does the source give for COc1cc(/C=C2\SC(=S)N(NC(=O)c3ccccc3O)C2=O)ccc1O here?
Answer: inconclusive: -100%

Question: With Cc1ccc(C(=O)Cc2nc3ccccc3[nH]2)cc1 as the compound, how does the lipid storage change, negative = inhibition read?
Answer: inconclusive: 27.1%

Question: Which lipid storage change, negative = inhibition does the source give for Cc1ccn2c(=O)nc(SCC(=O)NC3CCCC3)nc2c1 here?
Answer: inconclusive

Question: With CCOC(=O)C1CCN(C(=O)c2ccc(S(=O)(=O)Nc3ccccc3Cl)cc2)CC1 as the compound, how does the lipid storage change, negative = inhibition read?
Answer: inconclusive: 33.6% [activator] [at 0.0737 µM]

Question: With COc1ccccc1N(C(=O)c1snc(C(N)=O)c1N)C(C(=O)NC1CCCC1)c1ccc(N(C)C)cc1 (stereo not given) as the compound, how does the Potency read?
Answer: inconclusive: 2.06 µM [activator, single point]

Question: Which lipid storage change, negative = inhibition does the source give for Cc1noc(/C=C/Nc2ccc(F)cc2F)c1[N+](=O)[O-] here?
Answer: inconclusive: 81.3%

Question: With CCc1ccc(N(CC(=O)O)S(=O)(=O)c2c(C)noc2C)cc1 as the compound, how does the “lipid storage change, negative = inhibition” value read?
Answer: inactive: -21%

Question: With N#CC1(C#N)C(C(=O)C23CC4CC(CC(C4)C2)C3)C12CCOCC2 (stereo not given) as the compound, how does the lipid storage change, negative = inhibition read?
Answer: inconclusive: -20.5%

Question: Which lipid storage change, negative = inhibition does the source give for COC(=O)c1ccc(N2CCOCC2)c(NC(=O)c2ccc3c(c2)OCO3)c1 here?
Answer: inconclusive: -5.25%

Question: With Cc1ccc(CN(C(=O)c2csnn2)C(C(=O)NC2CCCC2)c2cccnc2)cc1 (stereo not given) as the compound, how does the lipid storage change, negative = inhibition read?
Answer: inconclusive: -33.2%

Question: For O=C(NNS(=O)(=O)c1ccc([N+](=O)[O-])cc1)C(=O)Nc1cccc(C(=O)O)c1, which Potency is on record?
Answer: inconclusive: 29.1 µM [falling, single point]

Question: With Cc1ccc(NC(=O)COC(=O)c2ccc(C)c(S(=O)(=O)N3CCOCC3)c2)cc1 as the compound, how does the “lipid storage change, negative = inhibition” value read?
Answer: inactive: 1.82%

Question: For O=C(Cn1cc([N+](=O)[O-])cn1)NCc1ccco1, which lipid storage change, negative = inhibition is on record?
Answer: inconclusive: -21.3%

Question: Which lipid storage change, negative = inhibition does the source give for Cc1ccc(-n2c(O)c(/C=N/Nc3ccc(S(=O)(=O)N4CCOCC4)cc3[N+](=O)[O-])c3ccccc3c2=O)c(C)c1 here?
Answer: inconclusive: 15%

Question: With Cc1ccc(S(=O)(=O)N[C@H](C(=O)N2CCC3(O)CCCCC3C2)c2ccccc2)cc1 (stereo not given in full) as the compound, how does the lipid storage change, negative = inhibition read?
Answer: inconclusive: -28.5%

Question: With CC(C)[N+]1(C)[C@@H]2CC[C@H]1CC(OC(=O)C(CO)c1ccccc1)C2 (stereo not given in full) as the compound, how does the lipid storage change, negative = inhibition read?
Answer: inconclusive: -9.24%

Question: With Cc1ccc(CNC(=O)c2cc(=O)c3ccccc3o2)cc1 as the compound, how does the lipid storage change, negative = inhibition read?
Answer: inconclusive: -16.3%

Question: For Cc1nn(Cc2nnc(SCC(=O)Nc3ccc(Cl)cc3)n2C)c(C)c1[N+](=O)[O-], which lipid storage change, negative = inhibition is on record?
Answer: inconclusive: -2.69%

Question: For C#CCOCCOCCOCCNc1nc(N2CCOCC2)nc(N2CCN(C(=O)[C@H](Cc3cc4ccccc4[nH]3)n3cc([C@@H](N)C(C)CC)nn3)CC2)n1 (stereo not given in full), which lipid storage change, negative = inhibition is on record?
Answer: inconclusive: 18.8%

Question: With COc1ccc(N2C(=O)CC(N3CCC(O)(c4cccc(C(F)(F)F)c4)CC3)C2=O)cc1 (stereo not given) as the compound, how does the lipid storage change, negative = inhibition read?
Answer: inconclusive: -44.9% [at 0.0737 µM]

Question: Which lipid storage change, negative = inhibition does the source give for Cc1oc2cc3oc(=O)c(CCC(=O)NCCCN4CCOCC4)c(C)c3cc2c1C here?
Answer: inconclusive: -15.8%

Question: For O=C(O)CCCC(=O)Nc1nc(-c2ccc(F)cc2)cs1, which “outcome” value is on record?
Answer: inactive [at 46.1 µM]

Question: Which Potency does the source give for COCc1nnc(NC(=O)CCC2CCCCC2)s1 here?
Answer: inconclusive: 2.31 µM [activator, single point]

Question: With COc1ccc(CNC(=O)COC(=O)c2nc3nc(C)cc(C)n3n2)cc1 as the compound, how does the lipid storage change, negative = inhibition read?
Answer: inconclusive: 3.33%

Question: With COc1cccc(N2CCN(C(=O)c3ccccc3SCC(=O)NCc3ccco3)CC2)c1 as the compound, how does the lipid storage change, negative = inhibition read?
Answer: inconclusive: 11.7%

Question: With Cc1cccc(NC(=S)N2CCC(NC(=O)C3CCCCC3)CC2)c1 as the compound, how does the Potency read?
Answer: inconclusive: 0.651 µM [falling, partial curve, poor fit]

Question: With N/C(=N/O)C(c1ccccc1)c1ccccc1 as the compound, how does the Potency read?
Answer: inconclusive: 0.651 µM [falling, partial curve]

Question: For O=C(Nc1ccc2nc(-c3ccco3)c(-c3ccco3)nc2c1)N1CCN(c2ccccn2)CC1, which lipid storage change, negative = inhibition is on record?
Answer: inconclusive: 71.4%

Question: Which lipid storage change, negative = inhibition does the source give for O=S(=O)(NC1CCCC1)c1ccc(S(=O)(=O)N2CCc3ccccc32)cc1 here?
Answer: inconclusive: -10.7%
